The text below walks through data of article PMC6831851.

Chains of the proteins cited; added tags and fusions are not shown. Residues count along the entry.
UniProt Q99MQ3: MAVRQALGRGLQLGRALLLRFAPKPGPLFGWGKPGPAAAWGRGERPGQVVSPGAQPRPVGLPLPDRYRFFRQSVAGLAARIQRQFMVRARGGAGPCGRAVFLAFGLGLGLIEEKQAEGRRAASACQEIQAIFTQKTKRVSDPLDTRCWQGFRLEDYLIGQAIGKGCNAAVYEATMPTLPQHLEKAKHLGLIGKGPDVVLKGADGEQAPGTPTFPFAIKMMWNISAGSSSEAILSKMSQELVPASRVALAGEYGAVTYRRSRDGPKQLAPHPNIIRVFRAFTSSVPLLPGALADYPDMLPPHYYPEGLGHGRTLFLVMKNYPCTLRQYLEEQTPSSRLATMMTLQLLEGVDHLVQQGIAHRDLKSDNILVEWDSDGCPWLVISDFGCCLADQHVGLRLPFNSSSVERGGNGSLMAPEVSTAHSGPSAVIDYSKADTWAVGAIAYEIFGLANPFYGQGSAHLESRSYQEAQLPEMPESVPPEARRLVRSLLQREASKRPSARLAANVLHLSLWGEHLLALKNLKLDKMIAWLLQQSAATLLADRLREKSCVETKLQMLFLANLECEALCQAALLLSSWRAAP
UniProt Q9BXM7, residues 78-581: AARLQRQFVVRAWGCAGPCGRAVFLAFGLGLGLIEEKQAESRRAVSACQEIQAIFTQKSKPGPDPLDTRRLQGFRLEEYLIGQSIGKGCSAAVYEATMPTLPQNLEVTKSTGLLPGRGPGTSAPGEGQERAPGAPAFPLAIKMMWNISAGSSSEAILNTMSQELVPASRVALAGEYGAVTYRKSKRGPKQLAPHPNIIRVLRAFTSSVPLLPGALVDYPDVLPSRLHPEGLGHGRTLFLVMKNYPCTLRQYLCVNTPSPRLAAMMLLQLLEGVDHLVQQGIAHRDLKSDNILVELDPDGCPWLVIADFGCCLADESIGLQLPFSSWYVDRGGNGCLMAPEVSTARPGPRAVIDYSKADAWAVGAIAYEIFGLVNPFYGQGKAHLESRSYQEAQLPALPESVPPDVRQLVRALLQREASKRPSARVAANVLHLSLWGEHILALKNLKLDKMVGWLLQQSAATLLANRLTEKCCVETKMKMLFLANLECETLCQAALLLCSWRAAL
UniProt P28331, residues 24-727: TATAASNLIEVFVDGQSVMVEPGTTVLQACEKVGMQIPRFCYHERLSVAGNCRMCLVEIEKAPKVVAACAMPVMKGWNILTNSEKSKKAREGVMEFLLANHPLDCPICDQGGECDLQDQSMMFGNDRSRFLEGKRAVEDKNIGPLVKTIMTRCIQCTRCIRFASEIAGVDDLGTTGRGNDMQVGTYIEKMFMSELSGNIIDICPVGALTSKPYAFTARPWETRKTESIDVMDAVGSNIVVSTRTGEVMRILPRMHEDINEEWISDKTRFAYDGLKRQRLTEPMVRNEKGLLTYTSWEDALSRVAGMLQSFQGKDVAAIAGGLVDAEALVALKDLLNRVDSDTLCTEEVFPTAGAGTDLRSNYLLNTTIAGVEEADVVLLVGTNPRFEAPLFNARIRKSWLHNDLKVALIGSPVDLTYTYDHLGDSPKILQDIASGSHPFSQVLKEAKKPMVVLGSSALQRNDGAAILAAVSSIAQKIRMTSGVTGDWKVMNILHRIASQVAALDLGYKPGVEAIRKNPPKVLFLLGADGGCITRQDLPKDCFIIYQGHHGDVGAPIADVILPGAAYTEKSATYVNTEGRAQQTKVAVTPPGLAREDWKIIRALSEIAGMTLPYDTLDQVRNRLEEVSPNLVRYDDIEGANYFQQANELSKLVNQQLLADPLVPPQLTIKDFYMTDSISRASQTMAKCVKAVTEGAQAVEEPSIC
UniProt Q9CQ45, residues 31-171: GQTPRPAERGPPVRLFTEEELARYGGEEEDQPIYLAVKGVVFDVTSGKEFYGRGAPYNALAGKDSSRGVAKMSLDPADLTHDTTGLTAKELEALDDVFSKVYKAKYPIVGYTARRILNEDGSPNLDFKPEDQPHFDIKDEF
UniProt Q9UMX5, residues 32-172: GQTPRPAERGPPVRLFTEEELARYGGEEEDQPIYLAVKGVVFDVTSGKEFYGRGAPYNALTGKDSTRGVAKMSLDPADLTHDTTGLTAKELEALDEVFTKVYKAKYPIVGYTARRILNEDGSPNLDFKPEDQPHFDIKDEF

For assay [1], the target named is T1, TOMM40 (human (endogenous in NTera2 and in skin fibroblasts)) (UniProt O96008).
T1 sequence: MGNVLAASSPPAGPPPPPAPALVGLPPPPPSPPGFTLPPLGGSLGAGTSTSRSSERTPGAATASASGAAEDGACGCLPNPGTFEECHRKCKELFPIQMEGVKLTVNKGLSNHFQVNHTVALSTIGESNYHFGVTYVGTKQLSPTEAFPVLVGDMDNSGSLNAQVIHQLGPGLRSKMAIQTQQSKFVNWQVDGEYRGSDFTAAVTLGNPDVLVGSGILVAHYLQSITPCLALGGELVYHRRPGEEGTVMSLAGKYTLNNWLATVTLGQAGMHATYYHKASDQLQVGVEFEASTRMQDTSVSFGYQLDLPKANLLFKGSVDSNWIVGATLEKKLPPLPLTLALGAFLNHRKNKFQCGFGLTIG
The experiment in a line: co-IP; fibroblasts of a healthy individual and of CI-deficient subjects with NDUF mutations; immunoblotted with anti-NDUFS1 or V1 antibody, band intensities normalized to GAPDH or healthy fibroblast input. A general note: Immunoblotting shows a protein as a band on a membrane.

Assay [2] concerns the target T2, DJ-1 (mouse brain) (mouse (endogenous in brain)) (UniProt Q99LX0).
T2 sequence: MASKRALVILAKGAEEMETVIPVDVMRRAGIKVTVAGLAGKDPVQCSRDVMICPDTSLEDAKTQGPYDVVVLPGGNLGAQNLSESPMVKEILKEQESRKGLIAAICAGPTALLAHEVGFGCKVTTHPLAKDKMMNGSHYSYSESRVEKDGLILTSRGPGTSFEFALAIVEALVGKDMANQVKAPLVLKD
The experiment in a line: co-IP; PINK1 and DJ-1 immunoprecipitates (anti-PINK1, anti-DJ-1) in whole-cell extract and mt, ER and MAM lysates from ECSCs, DNLCs and mouse brain, immunoblotted with anti-NENF.

The target in assay [3] is PINK1 (mouse brain) (mouse (endogenous in brain)) (UniProt Q99MQ3). The description is as above.
Assay [4] deals with DJ-1 WT fused with FLAG (human) (UniProt Q99497). The experiment in a line: co-IP; anti-FLAG immunoprecipitates of DJ-1 WT or mutants fused with FLAG in DJ-1 KO DNLCs, immunoblotted with anti-NENF or FLAG.
Assay [5] deals with DJ-1 (human (endogenous in NTera2 and in fibroblasts)) (UniProt Q99497). The experiment in a line: co-IP; PINK1 and DJ-1 immunoprecipitates (anti-PINK1, anti-DJ-1) in whole-cell extract and mt, ER and MAM lysates from ECSCs, DNLCs and mouse brain, immunoblotted with anti-NENF.
Assay [6] has as its target PINK1 (PTEN-induced putative kinase 1) (human (endogenous in NTera2 and in fibroblasts)) (UniProt Q9BXM7). The assay is described as above.

No constants are given. Whether binding was seen depends on the method and setting. Binding seen in cells or lysates may run through a third protein. Some results given as binding are weak or reduced against the parent protein; the word gives no strength.

NDUFS1 (from UniProt P28331 24-727): the binding entry in assay [1] is reported as “binds”.

On to “NENF (mouse brain) (from UniProt Q9CQ45 31-171)”, for which the binding result in assay [2] and in assay [3] was “binds” throughout.

Take “neuron-derived neurotrophic factor (NENF) (from UniProt Q9UMX5 32-172)”: the binding result in assay [4], in assay [5] and in assay [6] was “binds” in each case.
